Among the data in PMC10287671 are binding values, retold here.

By UniProt entry, the sequences of proteins in these tests, tags left out.
UniProt P61264: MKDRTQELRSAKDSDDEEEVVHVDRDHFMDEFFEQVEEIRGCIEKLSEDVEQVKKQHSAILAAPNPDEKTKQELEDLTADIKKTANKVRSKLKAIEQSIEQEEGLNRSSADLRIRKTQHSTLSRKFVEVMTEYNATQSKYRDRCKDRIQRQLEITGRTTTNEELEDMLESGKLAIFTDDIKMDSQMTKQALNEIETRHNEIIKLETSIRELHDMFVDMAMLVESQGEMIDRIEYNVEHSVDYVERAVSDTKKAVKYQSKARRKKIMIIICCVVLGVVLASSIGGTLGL

No constants are given. Whether binding was seen depends on the method and setting. Binding seen in cells or lysates may run through a third protein. Some binding calls cover weakened binding; strength is not graded here.

In this assay the target is T1, syntabulin (mouse (endogenous in hippocampus)) (UniProt Q8BHS8).
T1 sequence: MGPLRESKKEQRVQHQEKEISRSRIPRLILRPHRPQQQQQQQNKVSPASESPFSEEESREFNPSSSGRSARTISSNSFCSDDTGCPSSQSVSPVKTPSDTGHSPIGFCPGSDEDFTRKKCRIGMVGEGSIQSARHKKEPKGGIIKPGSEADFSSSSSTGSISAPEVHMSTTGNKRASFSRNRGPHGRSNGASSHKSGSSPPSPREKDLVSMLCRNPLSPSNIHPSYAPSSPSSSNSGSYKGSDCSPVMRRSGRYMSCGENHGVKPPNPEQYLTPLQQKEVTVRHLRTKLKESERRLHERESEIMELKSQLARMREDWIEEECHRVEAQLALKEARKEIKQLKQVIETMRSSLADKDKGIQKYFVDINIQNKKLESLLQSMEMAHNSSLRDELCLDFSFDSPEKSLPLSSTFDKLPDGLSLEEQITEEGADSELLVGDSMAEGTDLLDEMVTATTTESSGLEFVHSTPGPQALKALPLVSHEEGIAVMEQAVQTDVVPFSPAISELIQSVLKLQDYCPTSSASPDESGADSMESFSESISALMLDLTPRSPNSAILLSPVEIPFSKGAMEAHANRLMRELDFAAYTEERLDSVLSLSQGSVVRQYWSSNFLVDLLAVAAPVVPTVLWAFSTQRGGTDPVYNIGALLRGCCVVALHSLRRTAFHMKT
Briefly: co-IP; mouse hippocampal lysates incubated at 4 °C for 2 h with antibodies (anti-syntabulin, anti-syntaxin 1A, anti-syntaxin 1B), protein A/G magnetic beads, Western blot; hippocampus of KA model mice, and epilepsy group against control group in the quantitative co-IP. On the technique in general: A western blot detects proteins with antibodies after separation by electrophoresis.

syntaxin 1B (from UniProt P61264 1-288): the binding result is “binds”.
